Paper PMC7904863
No constants are given. Whether binding was seen depends on the method and setting. In cells and extracts the contact can be indirect. Some binding calls cover weakened binding; strength is not graded here.

By UniProt entry, the sequences of proteins in these tests, tags left out.
UniProt Q16637: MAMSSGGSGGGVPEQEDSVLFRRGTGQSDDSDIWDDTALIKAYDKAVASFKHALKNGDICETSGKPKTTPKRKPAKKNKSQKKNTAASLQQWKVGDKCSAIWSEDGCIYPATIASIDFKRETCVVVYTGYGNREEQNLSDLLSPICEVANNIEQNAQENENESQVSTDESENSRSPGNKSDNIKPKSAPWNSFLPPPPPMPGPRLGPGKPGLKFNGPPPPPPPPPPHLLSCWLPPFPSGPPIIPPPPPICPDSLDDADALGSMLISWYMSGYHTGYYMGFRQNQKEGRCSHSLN
UniProt O14893: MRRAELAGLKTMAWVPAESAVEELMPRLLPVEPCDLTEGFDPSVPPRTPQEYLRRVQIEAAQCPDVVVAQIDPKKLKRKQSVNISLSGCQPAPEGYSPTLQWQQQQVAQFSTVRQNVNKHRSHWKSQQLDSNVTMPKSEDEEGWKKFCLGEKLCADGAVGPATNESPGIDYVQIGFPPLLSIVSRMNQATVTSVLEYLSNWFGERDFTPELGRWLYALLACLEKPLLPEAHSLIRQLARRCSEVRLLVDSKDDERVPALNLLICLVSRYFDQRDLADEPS

Assays:
[1] = target: T1, La-related protein 7 (LARP7), human (human (endogenous in HEK293TN, HeLa)) (UniProt Q4G0J3); test: co-IP; endogenous bait precipitated from HeLa cell lysate (lysis buffer B); immunoblot
T1 sequence: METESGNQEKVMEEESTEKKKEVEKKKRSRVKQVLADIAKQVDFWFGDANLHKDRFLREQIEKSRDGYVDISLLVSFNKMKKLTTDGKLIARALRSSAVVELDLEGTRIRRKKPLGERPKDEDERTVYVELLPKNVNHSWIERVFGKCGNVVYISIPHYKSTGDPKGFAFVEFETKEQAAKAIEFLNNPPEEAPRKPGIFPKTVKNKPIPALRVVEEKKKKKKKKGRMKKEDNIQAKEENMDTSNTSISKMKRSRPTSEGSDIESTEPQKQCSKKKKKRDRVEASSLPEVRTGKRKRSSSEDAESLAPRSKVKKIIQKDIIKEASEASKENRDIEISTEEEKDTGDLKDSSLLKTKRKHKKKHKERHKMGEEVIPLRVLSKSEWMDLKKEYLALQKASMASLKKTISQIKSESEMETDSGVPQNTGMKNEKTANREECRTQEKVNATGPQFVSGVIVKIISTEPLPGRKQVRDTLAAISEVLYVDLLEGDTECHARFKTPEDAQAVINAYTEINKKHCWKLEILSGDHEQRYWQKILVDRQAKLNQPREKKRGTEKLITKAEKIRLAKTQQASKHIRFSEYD

[2] = target: T2, methyl phosphate capping enzyme (MePCE), human (human (endogenous in HEK293TN, HeLa)) (UniProt Q7L2J0); test: as above
T2 sequence: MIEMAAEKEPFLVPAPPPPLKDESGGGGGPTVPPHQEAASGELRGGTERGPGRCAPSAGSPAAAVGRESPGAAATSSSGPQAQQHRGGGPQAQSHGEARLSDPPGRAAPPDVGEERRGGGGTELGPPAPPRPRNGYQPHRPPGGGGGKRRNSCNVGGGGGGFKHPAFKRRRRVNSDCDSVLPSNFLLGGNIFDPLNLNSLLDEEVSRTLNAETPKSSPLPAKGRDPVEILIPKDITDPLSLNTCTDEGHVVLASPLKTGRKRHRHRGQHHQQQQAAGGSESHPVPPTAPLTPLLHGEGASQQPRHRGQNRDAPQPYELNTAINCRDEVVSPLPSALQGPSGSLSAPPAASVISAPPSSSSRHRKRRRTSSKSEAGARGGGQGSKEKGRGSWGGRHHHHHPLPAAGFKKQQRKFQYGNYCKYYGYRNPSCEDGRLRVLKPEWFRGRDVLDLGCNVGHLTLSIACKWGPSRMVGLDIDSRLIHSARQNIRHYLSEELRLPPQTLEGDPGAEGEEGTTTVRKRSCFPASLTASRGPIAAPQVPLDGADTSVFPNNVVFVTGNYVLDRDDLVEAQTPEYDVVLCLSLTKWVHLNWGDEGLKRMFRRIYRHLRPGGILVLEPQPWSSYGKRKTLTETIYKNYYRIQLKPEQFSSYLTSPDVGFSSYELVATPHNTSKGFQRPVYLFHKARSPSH

[3] = target: T1, La-related protein 7 (LARP7), human (human (endogenous in HEK293TN, HeLa)); test: co-IP; endogenous bait precipitated from HEK293TN cell lysate (lysis buffer B); immunoblot; in Fig. 2f cells treated with DMSO or ActD for 1 or 6 h
[4] = target: T2, methyl phosphate capping enzyme (MePCE), human (human (endogenous in HEK293TN, HeLa)); test: as above
[5] = target: Survival Motor Neuron protein (SMN), human (human (endogenous in HEK293TN, HeLa)) (UniProt Q16637); test: as above
[6] = target: T1, La-related protein 7 (LARP7), human (human (endogenous in HEK293TN, HeLa)); test: co-IP; endogenous bait precipitated with anti-LARP7 or anti-MePCE; immunoblot; cell line not named in the text (Supplementary Fig. 2c, d, g–l)
[7] = target: T2, methyl phosphate capping enzyme (MePCE), human (human (endogenous in HEK293TN, HeLa)); test: as above

Measured: binding

GEMIN2, human (from UniProt O14893 1-280)
not listed: [6] | [7]
binds: all other assays above

B1: heterogeneous nuclear ribonucleoprotein Q (hnRNP Q) (protein, UniProt O60506 1-623)
chain: MATEHVNGNGTEEPMDTTSAVIHSENFQTLLDAGLPQKVAEKLDEIYVAGLVAHSDLDERAIEALKEFNEDGALAVLQQFKDSDLSHVQNKSAFLCGVMKTYRQREKQGTKVADSSKGPDEAKIKALLERTGYTLDVTTGQRKYGGPPPDSVYSGQQPSVGTEIFVGKIPRDLFEDELVPLFEKAGPIWDLRLMMDPLTGLNRGYAFVTFCTKEAAQEAVKLYNNHEIRSGKHIGVCISVANNRLFVGSIPKSKTKEQILEEFSKVTEGLTDVILYHQPDDKKKNRGFCFLEYEDHKTAAQARRRLMSGKVKVWGNVGTVEWADPIEDPDPEVMAKVKVLFVRNLANTVTEEILEKAFSQFGKLERVKKLKDYAFIHFDERDGAVKAMEEMNGKDLEGENIEIVFAKPPDQKRKERKAQRQAAKNQMYDDYYYYGPPHMPPPTRGRGRGGRGGYGYPPDYYGYEDYYDYYGYDYHNYRGGYEDPYYGYEDFQVGARGRGGRGARGAAPSRGRGAAPPRGRAGYSQRGGPGSARGVRGARGGAQQQRGRGVRGARGGRGGNVGGKRKADGYNQPDSKRRQTNNQNWGSQPIAQQPLQGGDHSGNYGYKSENQEFYQDTFGQQWK
binds: [6] | [7]
